Experimental findings from US20220265769A1, “COMPOSITIONS AND METHODS OF TREATMENT FOR BREAST CANCER INVOLVING A NOVEL CAPER?-MLL1 COMPLEX” (Geisinger Health, priority 2019, published 2022) are described below.

No constants are given. Whether binding was seen depends on the method and setting. A result given as binding can be weak or reduced; the word gives no strength. For some assays here: Binding seen in cells or lysates may run through a third protein.

For test [1], the target named is MLL2 (human). The test is described as follows: IP and immunoblot, T47D cells. A general note: Immunoblotting shows a protein as a band on a membrane.
The target in test [2] is MLL2 (human). The test is described as follows: co-IP, T47D and MDA-MB231 cells (FIG. 35A).

B1: CAPERα (Coactivator of AP1 and Estrogen Receptor) (protein, human, UniProt Q14498 2-530, looked up)
chain: ADDIDIEAMLEAPYKKDENKLSSANGHEERSKKRKKSKSRSRSHERKRSKSKERKRSRDRERKKSKSRERKRSRSKERRRSRSRSRDRRFRGRYRSPYSGPKFNSAIRGKIGLPHSIKLSRRRSRSKSPFRKDKSPVREPIDNLTPEERDARTVFCMQLAARIRPRDLEEFFSTVGKVRDVRMISDRNSRRSKGIAYVEFVDVSSVPLAIGLTGQRVLGVPIIVQASQAEKNRAAAMANNLQKGSAGPMRLYVGSLHFNITEDMLRGIFEPFGRIESIQLMMDSETGRSKGYGFITFSDSECAKKALEQLNGFELAGRPMKVGHVTERTDASSASSFLDSDELERTGIDLGTTGRLQLMARLAEGTGLQIPPAAQQALQMSGSLAFGAVAEFSFVIDLQTRLSQQTEASALAAAASVQPLATQCFQLSNMFNPQTEEEVGWDTEIKDDVIEECNKHGGVIHIYVDKNSAQGNVYVKCPSIAAAIAAVNALHGRWFAGKMITAAYVPLPTYHNLFPDSMTATQLLVPSRR
As to B1, the binding entry with MLL2 (human) [1] and in the test with MLL2 (human) [2] was “binds” in each case.
